This is one part of the list.
compound: Cc1cc(ccc1-c1ccccc1)C(=O)N1CCCN(CC1)C(=O)CCl [compound 10]; test: probe-labelled cysteine peptide fold change vs DMSO (competition) (log2 fold change); higher = less target engagement (more negative = stronger competition); conditions: 10 µM; THP-1; incubation time: 4 h
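Further: competitive profiling in live THP-1 cells: cysteine peptides tagged with an iodoacetamide desthiobiotin (IA-DTB) probe, intensity after compound treatment relative to DMSO-treated cells.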

Chains of the proteins cited; added tags and fusions are not shown. Lines headed by an entry give the natural chain unless they say otherwise; changes in a name come on top.
UniProt Q5VIR6: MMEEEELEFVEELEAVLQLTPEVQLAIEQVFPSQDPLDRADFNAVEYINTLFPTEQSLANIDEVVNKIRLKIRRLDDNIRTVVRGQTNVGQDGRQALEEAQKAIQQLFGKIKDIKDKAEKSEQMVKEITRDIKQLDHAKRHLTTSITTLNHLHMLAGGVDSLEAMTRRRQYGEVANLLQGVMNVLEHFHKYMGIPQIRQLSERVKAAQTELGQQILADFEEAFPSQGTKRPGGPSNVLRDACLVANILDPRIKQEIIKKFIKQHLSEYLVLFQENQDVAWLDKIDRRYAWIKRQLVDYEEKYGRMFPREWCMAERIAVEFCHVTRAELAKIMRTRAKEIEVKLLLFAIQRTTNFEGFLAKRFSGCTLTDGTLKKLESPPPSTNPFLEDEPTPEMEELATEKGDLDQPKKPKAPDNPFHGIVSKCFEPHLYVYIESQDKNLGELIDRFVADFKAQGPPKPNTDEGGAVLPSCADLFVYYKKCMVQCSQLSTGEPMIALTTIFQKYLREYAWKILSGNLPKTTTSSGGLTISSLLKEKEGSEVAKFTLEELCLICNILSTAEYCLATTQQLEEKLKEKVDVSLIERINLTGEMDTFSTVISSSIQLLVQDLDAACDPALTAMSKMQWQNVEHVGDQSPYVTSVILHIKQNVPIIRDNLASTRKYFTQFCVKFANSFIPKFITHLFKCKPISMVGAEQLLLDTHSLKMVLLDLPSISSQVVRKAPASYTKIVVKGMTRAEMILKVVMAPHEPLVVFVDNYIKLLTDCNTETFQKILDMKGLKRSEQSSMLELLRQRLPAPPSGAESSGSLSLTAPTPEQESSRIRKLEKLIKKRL
UniProt Q8IV63: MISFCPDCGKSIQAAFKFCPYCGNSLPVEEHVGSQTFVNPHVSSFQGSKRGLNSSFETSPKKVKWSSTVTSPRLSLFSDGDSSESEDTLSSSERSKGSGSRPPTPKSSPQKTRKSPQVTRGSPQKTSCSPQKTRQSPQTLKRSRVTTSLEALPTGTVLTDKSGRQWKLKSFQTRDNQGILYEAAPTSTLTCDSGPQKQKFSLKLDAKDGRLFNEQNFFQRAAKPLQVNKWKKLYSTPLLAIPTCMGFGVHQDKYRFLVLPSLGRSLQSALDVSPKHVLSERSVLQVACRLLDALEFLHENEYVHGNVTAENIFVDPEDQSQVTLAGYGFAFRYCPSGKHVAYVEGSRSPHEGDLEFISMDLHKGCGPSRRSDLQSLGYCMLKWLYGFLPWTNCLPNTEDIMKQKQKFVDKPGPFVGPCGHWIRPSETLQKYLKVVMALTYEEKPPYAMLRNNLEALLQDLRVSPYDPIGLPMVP
UniProt P46939: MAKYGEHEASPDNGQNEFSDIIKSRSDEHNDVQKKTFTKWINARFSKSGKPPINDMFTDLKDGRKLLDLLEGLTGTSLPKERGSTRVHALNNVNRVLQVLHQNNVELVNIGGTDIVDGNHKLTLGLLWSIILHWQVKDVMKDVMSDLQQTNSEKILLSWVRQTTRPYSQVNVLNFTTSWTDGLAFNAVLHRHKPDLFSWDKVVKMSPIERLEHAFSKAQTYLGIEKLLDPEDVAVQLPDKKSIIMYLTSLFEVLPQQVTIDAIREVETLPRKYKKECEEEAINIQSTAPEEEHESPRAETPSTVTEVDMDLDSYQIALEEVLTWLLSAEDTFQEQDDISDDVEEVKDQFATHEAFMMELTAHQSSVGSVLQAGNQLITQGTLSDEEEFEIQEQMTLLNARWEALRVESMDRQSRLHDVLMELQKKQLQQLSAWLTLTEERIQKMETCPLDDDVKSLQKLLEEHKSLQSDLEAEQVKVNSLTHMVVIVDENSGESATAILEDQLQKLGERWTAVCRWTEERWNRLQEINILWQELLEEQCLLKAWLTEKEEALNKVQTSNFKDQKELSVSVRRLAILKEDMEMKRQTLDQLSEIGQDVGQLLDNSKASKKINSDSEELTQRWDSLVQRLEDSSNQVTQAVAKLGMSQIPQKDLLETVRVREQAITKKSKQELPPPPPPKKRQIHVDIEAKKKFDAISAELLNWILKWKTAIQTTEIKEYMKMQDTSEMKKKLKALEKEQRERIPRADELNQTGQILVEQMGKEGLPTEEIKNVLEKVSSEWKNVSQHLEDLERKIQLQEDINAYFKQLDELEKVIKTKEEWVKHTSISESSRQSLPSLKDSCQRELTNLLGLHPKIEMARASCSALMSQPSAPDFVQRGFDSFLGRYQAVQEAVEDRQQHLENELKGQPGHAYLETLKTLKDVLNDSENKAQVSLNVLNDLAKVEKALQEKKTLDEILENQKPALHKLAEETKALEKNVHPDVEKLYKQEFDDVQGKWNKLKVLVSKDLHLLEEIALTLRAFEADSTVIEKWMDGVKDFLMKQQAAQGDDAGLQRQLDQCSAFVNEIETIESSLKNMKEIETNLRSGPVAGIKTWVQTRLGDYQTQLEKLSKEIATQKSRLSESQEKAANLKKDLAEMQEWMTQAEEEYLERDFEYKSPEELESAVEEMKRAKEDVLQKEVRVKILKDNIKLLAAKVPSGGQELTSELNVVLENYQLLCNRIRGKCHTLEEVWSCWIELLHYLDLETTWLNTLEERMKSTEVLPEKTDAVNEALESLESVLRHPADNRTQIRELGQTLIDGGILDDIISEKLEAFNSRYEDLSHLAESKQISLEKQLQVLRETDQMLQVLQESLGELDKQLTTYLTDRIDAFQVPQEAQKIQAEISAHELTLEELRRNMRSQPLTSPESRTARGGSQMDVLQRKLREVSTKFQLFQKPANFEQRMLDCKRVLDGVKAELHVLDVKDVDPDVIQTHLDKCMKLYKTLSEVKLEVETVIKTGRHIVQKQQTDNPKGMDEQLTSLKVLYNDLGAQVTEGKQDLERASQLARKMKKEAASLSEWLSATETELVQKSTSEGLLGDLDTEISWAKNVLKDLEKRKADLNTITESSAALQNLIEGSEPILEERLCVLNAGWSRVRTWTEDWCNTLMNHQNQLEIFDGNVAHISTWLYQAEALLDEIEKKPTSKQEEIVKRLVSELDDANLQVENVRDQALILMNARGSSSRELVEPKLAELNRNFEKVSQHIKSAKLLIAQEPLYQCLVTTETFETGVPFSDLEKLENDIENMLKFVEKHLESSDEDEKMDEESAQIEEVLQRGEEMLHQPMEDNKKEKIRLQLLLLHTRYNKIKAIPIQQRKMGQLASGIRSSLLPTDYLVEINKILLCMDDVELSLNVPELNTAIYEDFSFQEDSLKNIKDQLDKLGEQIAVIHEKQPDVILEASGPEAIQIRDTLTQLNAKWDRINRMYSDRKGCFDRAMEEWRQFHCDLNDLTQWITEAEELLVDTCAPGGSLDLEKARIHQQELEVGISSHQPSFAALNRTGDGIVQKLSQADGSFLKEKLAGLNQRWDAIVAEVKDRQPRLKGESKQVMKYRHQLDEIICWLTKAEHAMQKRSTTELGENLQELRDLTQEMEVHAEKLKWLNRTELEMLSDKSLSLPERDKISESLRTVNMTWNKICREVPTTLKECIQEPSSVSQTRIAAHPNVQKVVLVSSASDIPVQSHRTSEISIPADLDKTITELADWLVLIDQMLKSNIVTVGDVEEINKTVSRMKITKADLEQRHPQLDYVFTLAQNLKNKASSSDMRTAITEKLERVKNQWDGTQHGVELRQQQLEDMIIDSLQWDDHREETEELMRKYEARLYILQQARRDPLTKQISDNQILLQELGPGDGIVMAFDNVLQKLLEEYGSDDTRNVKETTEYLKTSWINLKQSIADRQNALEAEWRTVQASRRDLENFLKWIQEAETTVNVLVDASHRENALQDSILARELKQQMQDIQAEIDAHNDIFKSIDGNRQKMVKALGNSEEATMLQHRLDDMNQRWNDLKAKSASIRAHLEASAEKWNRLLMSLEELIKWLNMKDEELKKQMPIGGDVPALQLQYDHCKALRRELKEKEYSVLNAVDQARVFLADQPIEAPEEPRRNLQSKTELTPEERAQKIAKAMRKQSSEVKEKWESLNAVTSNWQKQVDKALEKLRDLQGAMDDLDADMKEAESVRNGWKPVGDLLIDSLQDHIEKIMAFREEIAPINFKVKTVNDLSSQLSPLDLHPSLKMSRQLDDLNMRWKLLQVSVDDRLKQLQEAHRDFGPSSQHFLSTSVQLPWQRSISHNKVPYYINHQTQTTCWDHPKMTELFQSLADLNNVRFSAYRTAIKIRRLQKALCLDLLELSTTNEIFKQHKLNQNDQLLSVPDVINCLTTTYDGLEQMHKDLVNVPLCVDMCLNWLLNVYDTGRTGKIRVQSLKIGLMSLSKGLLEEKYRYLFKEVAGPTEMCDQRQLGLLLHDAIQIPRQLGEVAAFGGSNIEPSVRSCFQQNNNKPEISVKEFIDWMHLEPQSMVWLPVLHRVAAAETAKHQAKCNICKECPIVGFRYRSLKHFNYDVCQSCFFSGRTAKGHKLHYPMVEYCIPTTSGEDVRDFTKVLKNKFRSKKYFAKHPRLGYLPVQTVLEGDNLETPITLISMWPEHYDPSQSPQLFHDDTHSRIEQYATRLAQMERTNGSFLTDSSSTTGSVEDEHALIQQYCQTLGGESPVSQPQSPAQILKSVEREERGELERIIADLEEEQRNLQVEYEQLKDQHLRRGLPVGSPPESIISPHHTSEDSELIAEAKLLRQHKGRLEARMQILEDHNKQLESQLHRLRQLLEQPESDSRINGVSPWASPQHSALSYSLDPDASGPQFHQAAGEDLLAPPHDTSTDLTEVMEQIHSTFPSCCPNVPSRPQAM
UniProt Q9Y3C0: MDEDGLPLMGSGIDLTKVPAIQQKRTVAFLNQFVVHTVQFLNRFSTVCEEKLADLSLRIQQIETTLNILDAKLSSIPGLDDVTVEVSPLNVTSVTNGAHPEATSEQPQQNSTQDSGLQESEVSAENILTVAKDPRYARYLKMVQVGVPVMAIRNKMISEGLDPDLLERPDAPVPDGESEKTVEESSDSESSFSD
UniProt P15498: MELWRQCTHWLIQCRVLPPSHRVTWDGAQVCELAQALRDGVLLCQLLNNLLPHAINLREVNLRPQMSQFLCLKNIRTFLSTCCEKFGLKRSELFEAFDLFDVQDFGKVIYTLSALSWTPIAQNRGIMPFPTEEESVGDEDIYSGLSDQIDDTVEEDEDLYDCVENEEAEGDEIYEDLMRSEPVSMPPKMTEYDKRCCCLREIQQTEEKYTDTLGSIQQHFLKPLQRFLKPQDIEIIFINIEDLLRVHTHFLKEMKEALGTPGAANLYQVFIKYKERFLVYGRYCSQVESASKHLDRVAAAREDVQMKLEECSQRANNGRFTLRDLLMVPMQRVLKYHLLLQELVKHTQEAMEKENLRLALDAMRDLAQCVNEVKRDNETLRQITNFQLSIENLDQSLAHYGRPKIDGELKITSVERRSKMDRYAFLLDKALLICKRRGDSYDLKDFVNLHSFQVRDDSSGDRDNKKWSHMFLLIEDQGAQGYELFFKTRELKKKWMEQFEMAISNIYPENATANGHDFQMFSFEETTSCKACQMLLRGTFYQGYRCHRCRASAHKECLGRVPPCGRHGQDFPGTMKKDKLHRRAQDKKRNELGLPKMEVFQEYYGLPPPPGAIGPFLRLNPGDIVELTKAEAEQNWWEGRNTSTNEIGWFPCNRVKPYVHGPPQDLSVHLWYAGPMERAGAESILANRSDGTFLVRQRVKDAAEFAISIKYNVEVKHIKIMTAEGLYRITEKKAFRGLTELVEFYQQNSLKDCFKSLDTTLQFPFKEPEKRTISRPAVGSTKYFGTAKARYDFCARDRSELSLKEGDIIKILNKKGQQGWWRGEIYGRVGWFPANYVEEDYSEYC
UniProt Q8N0U8: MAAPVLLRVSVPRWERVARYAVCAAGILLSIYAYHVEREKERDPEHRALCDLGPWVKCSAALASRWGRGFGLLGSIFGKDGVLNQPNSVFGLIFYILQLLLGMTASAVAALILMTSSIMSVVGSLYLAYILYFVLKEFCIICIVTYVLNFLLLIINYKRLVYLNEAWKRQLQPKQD
UniProt Q96AX1: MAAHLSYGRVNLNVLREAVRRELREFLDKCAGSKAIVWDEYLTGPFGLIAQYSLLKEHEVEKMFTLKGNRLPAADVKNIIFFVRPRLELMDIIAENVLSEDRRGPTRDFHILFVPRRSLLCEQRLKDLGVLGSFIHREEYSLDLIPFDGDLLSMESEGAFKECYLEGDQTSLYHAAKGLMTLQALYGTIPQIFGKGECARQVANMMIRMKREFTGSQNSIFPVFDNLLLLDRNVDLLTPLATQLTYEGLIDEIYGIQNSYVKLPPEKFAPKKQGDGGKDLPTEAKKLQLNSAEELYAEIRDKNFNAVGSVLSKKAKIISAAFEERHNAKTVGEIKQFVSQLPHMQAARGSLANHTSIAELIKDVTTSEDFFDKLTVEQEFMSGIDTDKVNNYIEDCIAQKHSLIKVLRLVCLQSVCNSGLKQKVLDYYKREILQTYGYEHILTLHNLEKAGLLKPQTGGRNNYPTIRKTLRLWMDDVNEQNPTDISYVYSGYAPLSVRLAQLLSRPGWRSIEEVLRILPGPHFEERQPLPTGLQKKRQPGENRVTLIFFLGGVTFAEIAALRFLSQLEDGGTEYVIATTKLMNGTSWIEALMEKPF

Row | Target | probe-labelled cysteine peptide fold change
1 | VPS53_Q5VIR6_242_DACLVANILDPR (UniProt Q5VIR6) | 0.146
2 | UTP23_Q9BRU9_35_EPYQILLDGTFCQAALR (UniProt Q9BRU9) | 0.0683
3 | VCP_P55072_174_VVETDPSPYCIVAPDTVIHCEGEPIKR (UniProt P55072) | -0.154
4 | VPS37A_Q8NEZ2_375_TICHCR (UniProt Q8NEZ2) | 0.41
5 | VRK3_Q8IV63_418_FVDKPGPFVGPCGHWIRPSETLQK (UniProt Q8IV63) | -0.347
6 | WARS2_Q9UGM6_102_QSILDMTAVLLACGINPEK (UniProt Q9UGM6) | 0.195
7 | VCP_P55072_105_LGDVISIQPCPDVK (UniProt P55072) | -0.0467
8 | VCPIP1_Q96JH7_469_CLLCGALSELHVPPEWLAPGGK (UniProt Q96JH7) | 0.17
9 | VAV3_Q9UKW4_187_CPENDIR (UniProt Q9UKW4) | -0.136
10 | UTRN_P46939_2098_HQLDEIICWLTK (UniProt P46939) | 0.0675
11 | VPS72_Q15906_292_EVCPVTHRPALYRDPVTDIPYATAR (UniProt Q15906) | 0.0991
12 | VPS41_P49754_332_GFQENECR (UniProt P49754) | -0.18
13 | VIRMA_Q69YN4_1170_SFSGTTCQPIQHMLR (UniProt Q69YN4) | 0.014
14 | VPS16_Q9H269_817_NEAELSLVLSHCTGATDGATADK (UniProt Q9H269) | 0.271
15 | WASHC3_Q9Y3C0_48_FSTVCEEK (UniProt Q9Y3C0) | 0.225
16 | VAV1_P15498_83_TFLSTCCEK (UniProt P15498) | -0.0305
17 | VKORC1L1_Q8N0U8_50_ALCDLGPWVK (UniProt Q8N0U8) | -0.156
18 | VPS13C_Q709C8_1617_CNIADIK (UniProt Q709C8) | -0.0556

Row | Target | probe-labelled cysteine peptide fold change
19 | VPS33A_Q96AX1_416_LVCLQSVCNSGLK (UniProt Q96AX1) | 0.187
20 | VAV1_P15498_369_DLAQCVNEVK (UniProt P15498) | 0.353
21 | UTRN_P46939_2986_EVAGPTEMCDQR (UniProt P46939) | -0.136
22 | VEZF1_Q14119_327_TCMSEETSNQK (UniProt Q14119) | -0.0764
23 | VPS35_Q96QK1_640_CFSEENHEPLR (UniProt Q96QK1) | 0.0691
24 | VPS13B_Q7Z7G8_1993_CIDPGK (UniProt Q7Z7G8) | -0.0685
25 | VPS11_Q9H270_586_SDREAPGCR (UniProt Q9H270) | -0.297
26 | VPS11_Q9H270_586_EAPGCR (UniProt Q9H270) | 0.293
27 | VRK3_Q8IV63_244_LYSTPLLAIPTCMGFGVHQDK (UniProt Q8IV63) | -0.0457
28 | VPS18_Q9P253_433_EADFCFR (UniProt Q9P253) | -0.121
29 | VARS_P26640_917_ADFPAGIPECGTDALR (UniProt P26640) | -0.0666
30 | VCP_P55072_69_REAVCIVLSDDTCSDEK (UniProt P55072) | 0.233
31 | UXS1_Q8NBZ7_242_VAETMCYAYMK (UniProt Q8NBZ7) | -0.0516
32 | VIRMA_Q69YN4_1559_CCSDFDLHSELER (UniProt Q69YN4) | -0.327
33 | VCP_P55072_184_VVETDPSPYCIVAPDTVIHCEGEPIKR (UniProt P55072) | -0.336
34 | VLDLR_P98155_40_CEPSQFQCTNGR (UniProt P98155) | -0.103
35 | VPS35_Q96QK1_137_DLVEMCR (UniProt Q96QK1) | 0.0809

same assay, conditions: 50 µM; THP-1; incubation time: 4 h

Row | Target | probe-labelled cysteine peptide fold change
36 | VPS53_Q5VIR6_242_DACLVANILDPR (UniProt Q5VIR6) | 0.451
37 | UTP23_Q9BRU9_35_EPYQILLDGTFCQAALR (UniProt Q9BRU9) | 0.138
38 | VCP_P55072_174_VVETDPSPYCIVAPDTVIHCEGEPIKR (UniProt P55072) | 0.0887
39 | VPS37A_Q8NEZ2_375_TICHCR (UniProt Q8NEZ2) | 1.08
40 | VRK3_Q8IV63_418_FVDKPGPFVGPCGHWIRPSETLQK (UniProt Q8IV63) | -1.2
41 | WARS2_Q9UGM6_102_QSILDMTAVLLACGINPEK (UniProt Q9UGM6) | 0.614
42 | VCP_P55072_105_LGDVISIQPCPDVK (UniProt P55072) | 0.0133
43 | VCPIP1_Q96JH7_469_CLLCGALSELHVPPEWLAPGGK (UniProt Q96JH7) | -0.568
44 | VAV3_Q9UKW4_187_CPENDIR (UniProt Q9UKW4) | -0.136
45 | UTRN_P46939_2098_HQLDEIICWLTK (UniProt P46939) | -0.109
46 | VPS72_Q15906_292_EVCPVTHRPALYRDPVTDIPYATAR (UniProt Q15906) | 0.144
47 | VPS41_P49754_332_GFQENECR (UniProt P49754) | 0.157
48 | VIRMA_Q69YN4_1170_SFSGTTCQPIQHMLR (UniProt Q69YN4) | 0.0954
49 | VPS16_Q9H269_817_NEAELSLVLSHCTGATDGATADK (UniProt Q9H269) | 0.222
50 | WASHC3_Q9Y3C0_48_FSTVCEEK (UniProt Q9Y3C0) | 0.193
51 | VAV1_P15498_83_TFLSTCCEK (UniProt P15498) | -0.382
52 | VKORC1L1_Q8N0U8_50_ALCDLGPWVK (UniProt Q8N0U8) | -0.0504
53 | VPS13C_Q709C8_1617_CNIADIK (UniProt Q709C8) | -0.131

Row | Target | probe-labelled cysteine peptide fold change
54 | VPS33A_Q96AX1_416_LVCLQSVCNSGLK (UniProt Q96AX1) | 0.189
55 | VAV1_P15498_369_DLAQCVNEVK (UniProt P15498) | 0.294
56 | UTRN_P46939_2986_EVAGPTEMCDQR (UniProt P46939) | 0.0947
57 | VEZF1_Q14119_327_TCMSEETSNQK (UniProt Q14119) | -0.523
58 | VPS35_Q96QK1_640_CFSEENHEPLR (UniProt Q96QK1) | 0.135
59 | VPS13B_Q7Z7G8_1993_CIDPGK (UniProt Q7Z7G8) | -0.000933
60 | VPS11_Q9H270_586_SDREAPGCR (UniProt Q9H270) | -0.523
61 | VPS11_Q9H270_586_EAPGCR (UniProt Q9H270) | 0.578
62 | VRK3_Q8IV63_244_LYSTPLLAIPTCMGFGVHQDK (UniProt Q8IV63) | -0.143
63 | VPS18_Q9P253_433_EADFCFR (UniProt Q9P253) | -0.186
64 | VARS_P26640_917_ADFPAGIPECGTDALR (UniProt P26640) | 0.158
65 | VCP_P55072_69_REAVCIVLSDDTCSDEK (UniProt P55072) | -0.188
66 | UXS1_Q8NBZ7_242_VAETMCYAYMK (UniProt Q8NBZ7) | -0.0372
67 | VIRMA_Q69YN4_1559_CCSDFDLHSELER (UniProt Q69YN4) | -0.267
68 | VCP_P55072_184_VVETDPSPYCIVAPDTVIHCEGEPIKR (UniProt P55072) | 0.387
69 | VLDLR_P98155_40_CEPSQFQCTNGR (UniProt P98155) | -0.313
70 | VPS35_Q96QK1_137_DLVEMCR (UniProt Q96QK1) | 0.00884

— the supplement of paper PMC12067093, “Discovery and optimisation of a covalent ligand for TRIM25 and its application to targeted protein ubiquitination” (Chemical Science, 2025)
